Measurements reported in patent publication US5644025A (Gruppo Lepetit SPA, priority 1990, dated 1997).

Assay: general procedure: peptide synthesis; N-hydroxysuccinimide esters; N-hydroxybenzotriazole hydrate
Details: di-trifluoroacetate

## formula (Ic): R=Ro =amino, R1 =R2 =R5 =hydrogen, R3 =R4 =chloro, R6 =hydroxy, Y=carboxy
Late stage modification step
  crude HPLC purity: about 60%

## (L-phenylalanyl)^3 -[N^α,N^ε -di-(t-BOC)-D-lysyl]^15 -ATDH methyl ester
Coupling step
  crude HPLC purity: titre about 45%
